Assay results as given in PMC10584130.
These are yes or no findings as the source states them, for the method shown. Binding seen in cells or lysates may run through a third protein. A yes stands for co-enrichment or nearness to the bait. Other partners may have been found.

By UniProt entry, the sequences of proteins in these tests, tags left out.
UniProt P32917: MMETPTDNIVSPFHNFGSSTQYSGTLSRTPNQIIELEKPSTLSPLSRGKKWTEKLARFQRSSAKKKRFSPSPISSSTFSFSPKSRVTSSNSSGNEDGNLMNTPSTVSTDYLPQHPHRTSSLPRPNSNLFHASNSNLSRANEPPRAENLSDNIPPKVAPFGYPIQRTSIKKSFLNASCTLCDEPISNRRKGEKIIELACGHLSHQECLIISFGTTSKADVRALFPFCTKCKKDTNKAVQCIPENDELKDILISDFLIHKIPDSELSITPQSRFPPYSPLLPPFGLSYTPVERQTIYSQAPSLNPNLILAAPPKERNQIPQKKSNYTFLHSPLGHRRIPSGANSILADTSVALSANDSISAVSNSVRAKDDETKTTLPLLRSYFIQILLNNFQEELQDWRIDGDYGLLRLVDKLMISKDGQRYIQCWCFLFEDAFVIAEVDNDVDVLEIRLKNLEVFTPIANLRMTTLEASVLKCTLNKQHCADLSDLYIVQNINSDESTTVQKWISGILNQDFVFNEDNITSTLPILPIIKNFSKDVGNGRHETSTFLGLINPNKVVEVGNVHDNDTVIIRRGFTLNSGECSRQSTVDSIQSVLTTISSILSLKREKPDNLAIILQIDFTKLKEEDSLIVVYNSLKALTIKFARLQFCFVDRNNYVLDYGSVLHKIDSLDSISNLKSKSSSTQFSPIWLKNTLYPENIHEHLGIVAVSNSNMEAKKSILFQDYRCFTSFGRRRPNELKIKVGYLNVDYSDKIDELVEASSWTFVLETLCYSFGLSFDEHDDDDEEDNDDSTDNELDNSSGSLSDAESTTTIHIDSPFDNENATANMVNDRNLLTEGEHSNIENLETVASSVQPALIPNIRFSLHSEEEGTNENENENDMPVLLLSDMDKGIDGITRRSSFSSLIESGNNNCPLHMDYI
UniProt P10591: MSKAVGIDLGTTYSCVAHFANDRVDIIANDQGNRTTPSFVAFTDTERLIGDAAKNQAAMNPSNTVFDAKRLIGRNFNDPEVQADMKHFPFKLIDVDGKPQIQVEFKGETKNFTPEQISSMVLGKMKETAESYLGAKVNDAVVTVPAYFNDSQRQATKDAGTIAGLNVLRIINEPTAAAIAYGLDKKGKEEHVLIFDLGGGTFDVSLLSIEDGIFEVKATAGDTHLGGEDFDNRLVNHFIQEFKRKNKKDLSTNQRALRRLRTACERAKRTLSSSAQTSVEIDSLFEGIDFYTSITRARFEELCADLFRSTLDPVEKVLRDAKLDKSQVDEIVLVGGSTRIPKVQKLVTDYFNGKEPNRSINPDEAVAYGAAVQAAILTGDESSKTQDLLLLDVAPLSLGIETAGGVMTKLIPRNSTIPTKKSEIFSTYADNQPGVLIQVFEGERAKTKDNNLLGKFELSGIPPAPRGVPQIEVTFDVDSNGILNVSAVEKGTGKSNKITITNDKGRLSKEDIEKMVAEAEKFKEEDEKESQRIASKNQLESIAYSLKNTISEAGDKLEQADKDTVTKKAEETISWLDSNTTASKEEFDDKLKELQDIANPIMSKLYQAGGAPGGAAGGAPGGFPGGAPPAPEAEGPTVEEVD

Target: Ste5-Myc9 (S. cerevisiae) (UniProt P32917)
Experiment: affinity purification with mass spectrometry; Ste5-Myc9 IP'd with 9E10 from 10 mg yeast whole cell extract (EY1775, cells without or with 50 nM α factor for 2 hours); 20 mM Tris-HCl pH 7.2, 125 mM potassium acetate, 0.1% Tween 20; Coomassie-stained SDS gel, 70 kDa band digested with trypsin, LC-MS/MS; ImageJ densitometry of the gel

- binding: binds
Substance: Hsp70 Ssa1 (endogenous) (from UniProt P10591 1-642)
